Values joined by “and” are separate entries in the source; they are usually repeats but may differ in a detail not shown here. Equal entries are not always repeated. Structures can show the parent of a compound that is named as a salt. ± gives the standard deviation of the averaged measurements. The list shows a part of the results. Plates or batches differ in their baseline, so values are only roughly comparable.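 Assay uses culture-activated primary human stellate myofibroblasts; lipid droplet recovery indicates inactivation. Measured: proportion of Hoechst-counted cells over a plate-specific Bodipy cutoff, duplicate wells, DMSO and nortriptyline as per-plate negative and positive controls. A hit scores, control-normalized, above the plate's top-tenth-percentile nortriptyline wells or ranks among its three best wells. Final well concentrations not reported.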
Tested on: primary human hepatic stellate cells (donor 1)
Test: percent Bodipy-positive cells; higher = more lipid droplet accumulation
Conditions: 48 h
[1] = library stock concentration: 10 mM
[2] = library stock concentration: 3.33 mM
[3] = library stock concentration: 1 mM

## CC(C(=O)O)c1ccc(N2Cc3ccccc3C2=O)cc1 (stereo unspecified) [Indoprofen]
  percent Bodipy-positive cells: 12.6 ± 2.1%
Library stock concentration: 7.1 mM
  percent Bodipy-positive cells: 2.87 ± 2.3%
[1]
  percent Bodipy-positive cells: 16.7 ± 4.7%

## CO[C@@]12[C@H](COC(N)=O)C3=C(C(=O)C(C)=C(N)C3=O)N1C[C@@H]1N[C@@H]12 [Mitomycin c]
Library stock concentration: 6 mM
  percent Bodipy-positive cells: 17.9% and 20.5%
[1]
  percent Bodipy-positive cells: 43.6 ± 5.4%

## CO[C@@]12[C@H](COC(N)=O)C3=C(C(=O)C(C)=C(N)C3=O)N1C[C@@H]1N[C@@H]12 [Mitomycin C]
Library stock concentration: 15 mM
  percent Bodipy-positive cells: 42.4 ± 8.4%

## Cc1cc(Nc2ncnc3ccc(-c4ccc(CNCCS(C)(=O)=O)o4)cc23)ccc1Oc1ccn2ncnc2c1 [HER2-Inhibitor-1]
[2]
  percent Bodipy-positive cells: 24.1 ± 2.4%

## CC1=Nc2ccc(Cl)cc2S(=O)(=O)N1 [Diazoxide]
  percent Bodipy-positive cells: 23.7 ± 6.5%
Library stock concentration: 8.7 mM
  percent Bodipy-positive cells: 10.5% and 7.2%
Library stock concentration: 21.7 mM
  percent Bodipy-positive cells: 12.6 ± 7.2%

## CC1=Nc2ccc(Cl)cc2S(=O)(=O)N1
[1]
  percent Bodipy-positive cells: 4.63 ± 2.3%

## COC(=O)C1=C(C)NC(C)=C(C(=O)OCCCN2CCC(c3ccccc3)(c3ccccc3)CC2)[C@H]1c1cccc([N+](=O)[O-])c1 [(S)-(+)-Niguldipine hydrochloride]
[1]
  percent Bodipy-positive cells: 80.6 ± 16%

## COC(=O)C1=C(C)NC(C)=C(C(=O)OCCCN2CCC(c3ccccc3)(c3ccccc3)CC2)[C@H]1c1cccc([N+](=O)[O-])c1 [Niguldipine]
Library stock concentration: 7.7 mM
  percent Bodipy-positive cells: 86.6 ± 8%

## COC(=O)Nc1nc2ccc(SC(C)C)cc2[nH]1 [Methiazole]
  percent Bodipy-positive cells: 16.2 ± 5.5%

## Cc1ccc(Cl)c(Nc2ccccc2C(=O)O)c1Cl [Meclofenamic acid sodium salt monohydrate]
  percent Bodipy-positive cells: 23.5 ± 9.9%

## Cc1ccc(Cl)c(Nc2ccccc2C(=O)O)c1Cl [Meclofenamate sodium]
Library stock concentration: 6.3 mM
  percent Bodipy-positive cells: 4.02 ± 0.047%

## Cc1ccc(Cl)c(Nc2ccccc2C(=O)O)c1Cl [Meclomen]
[1]
  percent Bodipy-positive cells: 32.4 ± 1.9%

## Cc1ccc(Cl)c(Nc2ccccc2C(=O)O)c1Cl [Meclofenamate (sodium salt)]
[3]
  percent Bodipy-positive cells: 12.1 ± 0.68%

## Cc1ccc(Cl)c(Nc2ccccc2C(=O)O)c1Cl [Meclofenamic acid sodium]
[1]
  percent Bodipy-positive cells: 19.2 ± 5.5%

## Cc1ccc(Cl)c(Nc2ccccc2C(=O)O)c1Cl [Meclofenamate Sodium]
[2]
  percent Bodipy-positive cells: 24.2 ± 20%
[1]
  percent Bodipy-positive cells: 32.7 ± 8.1%

## C=C1/C(=C\C=C2/CCC[C@]3(C)[C@@H]([C@H](C)/C=C/[C@@H](O)C4CC4)CC[C@@H]23)C[C@@H](O)C[C@@H]1O [Calcipotriene]
Library stock concentration: 4.8 mM
  percent Bodipy-positive cells: 9.26 ± 1.1%

## C=C1/C(=C\C=C2/CCC[C@]3(C)[C@@H]([C@H](C)/C=C/[C@@H](O)C4CC4)CC[C@@H]23)C[C@@H](O)C[C@@H]1O [Calcipotriol]
[1]
  percent Bodipy-positive cells: 6.11 ± 0.42%

## CCCCCC=CCC=CCC=CCC=CCCCC(=O)OCC(O)CO (stereo unspecified) [1-Arachidonoyl Glycerol]
[3]
  percent Bodipy-positive cells: 7.49 ± 0.38%

## O=C(NCCO[N+](=O)[O-])c1cccnc1
[1]
  percent Bodipy-positive cells: 6.04 ± 0.19%

## O=C(NCCO[N+](=O)[O-])c1cccnc1 [Nicorandil]
  percent Bodipy-positive cells: 44.2 ± 25%
[2]
  percent Bodipy-positive cells: 15.9 ± 8.9%
Library stock concentration: 9.5 mM
  percent Bodipy-positive cells: 9.85 ± 0.59%
[1]
  percent Bodipy-positive cells: 10.7% and 5.81%

## O=C1Nc2ccc(I)cc2C1=Cc1cc(Br)c(O)c(Br)c1
[2]
  percent Bodipy-positive cells: 7.21 ± 3.4%
[1]
  percent Bodipy-positive cells: 23.9 ± 2.1%

## CC(C)(Cc1ccc2ccccc2c1)NC[C@@H](O)COc1cccc(Cl)c1C#N
[2]
  percent Bodipy-positive cells: 54.2 ± 8.1%
[1]
  percent Bodipy-positive cells: 84.2 ± 3.4%

## O=C(c1cn(Cc2cncn2Cc2ccc(Br)cc2)cc1-c1cccc2ccccc12)N1CCOCC1
[2]
  percent Bodipy-positive cells: 46.2 ± 8.2%
[1]
  percent Bodipy-positive cells: 89.7 ± 7.9%

## CCN1CCN(C(=O)N[C@@H](C(=O)N[C@@H]2C(=O)N3C(C(=O)O)=C(CSc4nnnn4C)CS[C@H]23)c2ccc(O)cc2)C(=O)C1=O [Cefoperazone acid]
Library stock concentration: 3.1 mM
  percent Bodipy-positive cells: 8.76 ± 5.1%

## CCN1CCN(C(=O)N[C@@H](C(=O)N[C@@H]2C(=O)N3C(C(=O)O)=C(CSc4nnnn4C)CS[C@H]23)c2ccc(O)cc2)C(=O)C1=O [Cefoperazone sodium]
Library stock concentration: 3 mM
  percent Bodipy-positive cells: 17.7 ± 1.7%
[1]
  percent Bodipy-positive cells: 21.1 ± 2.6%

## CCN1CCN(C(=O)N[C@@H](C(=O)N[C@@H]2C(=O)N3C(C(=O)O)=C(CSc4nnnn4C)CS[C@H]23)c2ccc(O)cc2)C(=O)C1=O [Cefoperazone dihydrate]
  percent Bodipy-positive cells: 27.4 ± 0.74%

## CCN1CCN(C(=O)N[C@@H](C(=O)N[C@@H]2C(=O)N3C(C(=O)O)=C(CSc4nnnn4C)CS[C@H]23)c2ccc(O)cc2)C(=O)C1=O [Cefoperazone]
[2]
  percent Bodipy-positive cells: 8.98 ± 3.8%
[1]
  percent Bodipy-positive cells: 14.8 ± 2.8%

## CN(C)CCOc1ccc(/C(=C(/CCCl)c2ccccc2)c2ccccc2)cc1 [Toremifene Citrate]
[2]
  percent Bodipy-positive cells: 33.7 ± 12%

## CN(C)CCOc1ccc(/C(=C(/CCCl)c2ccccc2)c2ccccc2)cc1
[1]
  percent Bodipy-positive cells: 33.2 ± 0.52%

## CN(C)CCOc1ccc(/C(=C(/CCCl)c2ccccc2)c2ccccc2)cc1 [Toremifene]
Library stock concentration: 4.9 mM
  percent Bodipy-positive cells: 24.9 ± 2.2%

## CCCn1c(=O)c2c(ncn2C)n(CCC)c1=O [1,3-Dipropyl-7-methylxanthine]
[1]
  percent Bodipy-positive cells: 29.9 ± 16%

## C[C@H]1C[C@H]2[C@@H]3CCC4=CC(=O)C=C[C@]4(C)[C@@]3(F)[C@@H](O)C[C@]2(C)[C@@]1(O)C(=O)CO [Betamethasone]
  percent Bodipy-positive cells: 19.1 ± 5.7%
[2]
  percent Bodipy-positive cells: 6.52 ± 2.8%
Library stock concentration: 4 mM
  percent Bodipy-positive cells: 6.94 ± 0.46%

## CC(C)COCC(CN(Cc1ccccc1)c1ccccc1)N1CCCC1.Cl (stereo unspecified)
Library stock concentration: 12.4 mM
  percent Bodipy-positive cells: 89.64 ± 0.59%

## CNC(=O)[C@H](Cc1c[nH]c2ccccc12)NC(=O)[C@@H](CC(=O)NO)CC(C)C
Library stock concentration: 12.9 mM
  percent Bodipy-positive cells: 13.3 ± 1%

## CNC(=O)[C@H](Cc1c[nH]c2ccccc12)NC(=O)[C@@H](CC(=O)NO)CC(C)C [Ilomastat (GM6001, Galardin)]
[2]
  percent Bodipy-positive cells: 30.7 ± 2.5%
[1]
  percent Bodipy-positive cells: 29.9 ± 4.8%

## Cc1cc(/C(=C/Nc2ccc(Cl)cc2)C(=O)Nc2ccc(Cl)cc2)on1
[1]
  percent Bodipy-positive cells: 27.6 ± 3.1%

## Oc1ccc(OCc2ccccc2)cc1 [Monobenzone]
  percent Bodipy-positive cells: 12 ± 0.21%
[2]
  percent Bodipy-positive cells: 12.4 ± 3%
[1]
  percent Bodipy-positive cells: 20.2 ± 14%
